Experimental data as given in article PMC11161467.
Results are given in words; binding and its absence hold for the method and conditions named. In cells and extracts the contact can be indirect. Some binding calls cover weakened binding; strength is not graded here.

The chains behind the UniProt entries cited, without tags or fusion partners.
UniProt Q64010: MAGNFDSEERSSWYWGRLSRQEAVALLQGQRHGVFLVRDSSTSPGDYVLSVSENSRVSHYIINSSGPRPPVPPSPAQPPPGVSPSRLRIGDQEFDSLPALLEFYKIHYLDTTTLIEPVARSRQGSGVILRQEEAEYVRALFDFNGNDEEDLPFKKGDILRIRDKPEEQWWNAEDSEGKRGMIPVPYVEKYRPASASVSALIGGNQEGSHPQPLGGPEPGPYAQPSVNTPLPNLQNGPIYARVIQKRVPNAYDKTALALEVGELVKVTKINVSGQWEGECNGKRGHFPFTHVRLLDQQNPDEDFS

Molecular target: CrkII (mouse (endogenous in bone marrow macrophage-derived preosteoclasts)) (UniProt Q64010)
Assay: co-IP; Dynabeads Protein A immunoprecipitation from lysates of WT and Siglec-15-/- prefusion osteoclasts, starved 1 h in alpha-MEM, then 10 ng/mL M-CSF for 0, 1, 5 or 20 min; immunoblot; which antibody precipitated is not told

binding: binds
B1: p130Cas (protein, UniProt Q61140 1-874)
chain: MTVPNVLAKALYDNVAESPDELSFRKGDIMTVLERDTQGLDGWWLCSLHGRQGIVPGNRLKILVGMYDKKPVGPGPGPPATPPQPQPSLPQGVHAPVPPASQYSPMLPTAYQPQSDNVYLVPTPSKTQQGLYQAPGPNPQFQSPPAKQTSTFSKQTPHHSFPSPATDLYQVPPGPGSPAQDIYQVPPSAGIGHDIYQVPPSLDTRGWEGTKPPAKVVVPTRVGQGYVYEAAQTEQDEYDTPRHLLAPGPQDIYDVPPVRGLLPNQYGQEVYDTPPMAVKGPNGRDPLLDVYDVPPSVEKGLLSSSHHSVYDVPPSVSKDVPDGPLLREETYDVPPAFAKPKPFDPTRHPLILAAPPPDSPAAEDVYDVPPPAPDLYDVPPGLRRPGPGTLYDVPRERVLPPEVADGSVVDDGVYAVPPPAEREAPTDGKRLSASSTGSTRSSQSASSLEVVVPGREPLELEVAVESLARLQQGVSTTVAHLLDLVGSASGPGGWRGTSEPQEPPAQDLKAAVAAVHGAVHELLEFARGAVSNATHTSDRTLHAKLSRQLQKMEDVYQTLVVHGQVLDSGRGSPGFTPEDLDRLVACSRAVPEDAKQLASFLHGNASLLFRRTKAPGPGPEGSSSLHPNPTDKASSIQSRPLPSPPKFTSQDSPDGQYENSEGGWMEDYDYVHLQGKEEFEKTQKELLERGNIMRQGKGQLELQQLKQFERLEQEVSRPIDHDLANWTPAQPLVPGRTGGLGPSDRQLLLFYLEQCEANLTTLTDAVDAFFTAVATNQPPKIFVAHSKFVILSAHKLVFIGDTLSRQAKAADVRSQVTHYSNLLCDLLRGIVATTKAAALQYPSPSAAQDMVDRVKELGHSTQQFRRVLGQLAAA
